Test results: patent publication US11787839B2, “Targeting α2δ-1-bound glutamate receptors for treating diseases and disorders” (Board of Regents, The University of Texas System, priority 2017, dated 2023)

Test system: α2δ-1
[1] = morphine- vs vehicle-treated rats

CN1CC[C@]23c4c5ccc(O)c4O[C@H]2[C@@H](O)C=C[C@H]3[C@H]1C5.O=S(=O)(O)O [morphine, morphine sulfate]
α2δ-1 level in the DRG and dorsal spinal cord (morphine 5 mg/kg i.p. twice a day for 8 days vs vehicle): significantly higher
GluN1 and α2δ-1 protein levels in spinal cord synaptosomes [1]: significantly higher
α2δ-1-GluN1 protein complex level in the dorsal spinal cord [1]: much higher
